Measurements published in US20160221948A1, “NITROGEN-CONTAINING SATURATED HETEROCYCLIC COMPOUND” (SUMITOMO CHEMICAL COMPANY, LIMITED, priority 2013, published 2016).
pEC50: −log10 of the molar value. The match of structure and compound is tentative.

Chains of the proteins cited; added tags and fusions are not shown.
UniProt P31391, whole entry: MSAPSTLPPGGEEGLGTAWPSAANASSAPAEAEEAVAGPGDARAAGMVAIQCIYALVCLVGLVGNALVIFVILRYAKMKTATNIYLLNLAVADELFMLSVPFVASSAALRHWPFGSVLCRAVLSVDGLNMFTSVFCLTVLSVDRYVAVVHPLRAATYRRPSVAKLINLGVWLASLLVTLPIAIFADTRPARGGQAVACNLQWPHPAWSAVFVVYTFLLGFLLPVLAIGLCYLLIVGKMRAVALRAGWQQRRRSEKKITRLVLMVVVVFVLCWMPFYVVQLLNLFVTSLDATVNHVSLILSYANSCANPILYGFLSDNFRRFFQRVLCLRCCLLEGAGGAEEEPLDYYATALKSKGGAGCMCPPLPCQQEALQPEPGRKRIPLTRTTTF

Target: human SSTR4 (Homo sapiens, UniProt P31391)
Experiment: Evaluation of agonist activities using human SSTR4-stably expressing cells (aequorin luminescence)
Assay type: cell-based
Details: luminescence signal; 1 μmol/L somatostatin taken as 100%

CN1CCC[C@H](C(=O)NC(C)(C)c2c(Cl)cccc2Cl)C1
pEC50: 8.19
